Laboratory results published in the supplement of paper PMC12823440, “Inhibitors supercharge kinase turnover through native proteolytic circuits” (Nature, 2025).
Counter-ions that a name gives are not always drawn. The list shows a part of the results. Hit calls seldom repeat between salt and free forms of one compound.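 Kinases were expressed as nanoluciferase fusions in K562 cells and luminescence was read every 4 h between 2 and 18 h as percent of control, DMSO set to 100% and a positive control to 0%. A time point counts as decreased when the signal drops significantly (2 sigma). The hit call is the authors' own, does not follow from the count of time points alone, and its rule is not shown.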

By UniProt entry, the sequences of proteins in these tests, tags left out. Where a name states a change or a piece, a line headed by the entry shows the natural chain unless it says otherwise.
UniProt P36888, whole entry: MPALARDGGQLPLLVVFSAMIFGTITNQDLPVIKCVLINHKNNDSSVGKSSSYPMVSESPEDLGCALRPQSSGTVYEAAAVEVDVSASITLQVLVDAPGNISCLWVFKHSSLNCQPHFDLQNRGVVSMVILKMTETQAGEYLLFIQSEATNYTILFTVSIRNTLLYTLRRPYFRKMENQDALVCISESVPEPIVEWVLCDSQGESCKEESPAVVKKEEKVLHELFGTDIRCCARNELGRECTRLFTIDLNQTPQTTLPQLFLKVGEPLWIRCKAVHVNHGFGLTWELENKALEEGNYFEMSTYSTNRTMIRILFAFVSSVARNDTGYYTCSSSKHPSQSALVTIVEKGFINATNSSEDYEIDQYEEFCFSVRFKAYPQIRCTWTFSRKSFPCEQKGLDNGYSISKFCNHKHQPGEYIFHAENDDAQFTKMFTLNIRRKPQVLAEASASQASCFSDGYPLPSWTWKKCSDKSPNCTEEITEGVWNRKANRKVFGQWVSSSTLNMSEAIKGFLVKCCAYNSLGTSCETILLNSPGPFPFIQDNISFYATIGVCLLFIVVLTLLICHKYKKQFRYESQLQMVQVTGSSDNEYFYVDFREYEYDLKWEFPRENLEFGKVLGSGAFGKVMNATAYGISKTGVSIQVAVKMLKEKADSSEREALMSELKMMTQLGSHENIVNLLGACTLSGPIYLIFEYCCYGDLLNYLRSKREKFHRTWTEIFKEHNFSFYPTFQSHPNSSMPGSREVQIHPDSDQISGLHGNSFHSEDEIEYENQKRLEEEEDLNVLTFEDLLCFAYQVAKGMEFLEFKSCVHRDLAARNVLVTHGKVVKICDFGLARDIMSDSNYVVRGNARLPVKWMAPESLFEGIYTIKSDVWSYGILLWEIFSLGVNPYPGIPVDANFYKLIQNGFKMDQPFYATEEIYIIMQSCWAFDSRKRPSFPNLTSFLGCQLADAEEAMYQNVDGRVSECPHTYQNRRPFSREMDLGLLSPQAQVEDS
UniProt P49840: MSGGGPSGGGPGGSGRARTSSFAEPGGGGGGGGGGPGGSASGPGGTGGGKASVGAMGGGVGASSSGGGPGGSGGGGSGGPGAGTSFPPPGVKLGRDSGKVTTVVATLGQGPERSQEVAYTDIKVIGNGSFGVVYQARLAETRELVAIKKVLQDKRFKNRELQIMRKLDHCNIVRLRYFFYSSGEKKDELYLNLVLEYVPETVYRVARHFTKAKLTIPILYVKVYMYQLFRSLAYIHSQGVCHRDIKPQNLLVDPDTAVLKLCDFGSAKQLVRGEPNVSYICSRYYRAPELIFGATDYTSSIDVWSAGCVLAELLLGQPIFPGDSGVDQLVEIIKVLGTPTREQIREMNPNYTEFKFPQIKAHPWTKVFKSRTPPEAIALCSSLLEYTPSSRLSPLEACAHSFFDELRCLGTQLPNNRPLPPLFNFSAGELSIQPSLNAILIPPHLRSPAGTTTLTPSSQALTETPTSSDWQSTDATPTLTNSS
UniProt P14616: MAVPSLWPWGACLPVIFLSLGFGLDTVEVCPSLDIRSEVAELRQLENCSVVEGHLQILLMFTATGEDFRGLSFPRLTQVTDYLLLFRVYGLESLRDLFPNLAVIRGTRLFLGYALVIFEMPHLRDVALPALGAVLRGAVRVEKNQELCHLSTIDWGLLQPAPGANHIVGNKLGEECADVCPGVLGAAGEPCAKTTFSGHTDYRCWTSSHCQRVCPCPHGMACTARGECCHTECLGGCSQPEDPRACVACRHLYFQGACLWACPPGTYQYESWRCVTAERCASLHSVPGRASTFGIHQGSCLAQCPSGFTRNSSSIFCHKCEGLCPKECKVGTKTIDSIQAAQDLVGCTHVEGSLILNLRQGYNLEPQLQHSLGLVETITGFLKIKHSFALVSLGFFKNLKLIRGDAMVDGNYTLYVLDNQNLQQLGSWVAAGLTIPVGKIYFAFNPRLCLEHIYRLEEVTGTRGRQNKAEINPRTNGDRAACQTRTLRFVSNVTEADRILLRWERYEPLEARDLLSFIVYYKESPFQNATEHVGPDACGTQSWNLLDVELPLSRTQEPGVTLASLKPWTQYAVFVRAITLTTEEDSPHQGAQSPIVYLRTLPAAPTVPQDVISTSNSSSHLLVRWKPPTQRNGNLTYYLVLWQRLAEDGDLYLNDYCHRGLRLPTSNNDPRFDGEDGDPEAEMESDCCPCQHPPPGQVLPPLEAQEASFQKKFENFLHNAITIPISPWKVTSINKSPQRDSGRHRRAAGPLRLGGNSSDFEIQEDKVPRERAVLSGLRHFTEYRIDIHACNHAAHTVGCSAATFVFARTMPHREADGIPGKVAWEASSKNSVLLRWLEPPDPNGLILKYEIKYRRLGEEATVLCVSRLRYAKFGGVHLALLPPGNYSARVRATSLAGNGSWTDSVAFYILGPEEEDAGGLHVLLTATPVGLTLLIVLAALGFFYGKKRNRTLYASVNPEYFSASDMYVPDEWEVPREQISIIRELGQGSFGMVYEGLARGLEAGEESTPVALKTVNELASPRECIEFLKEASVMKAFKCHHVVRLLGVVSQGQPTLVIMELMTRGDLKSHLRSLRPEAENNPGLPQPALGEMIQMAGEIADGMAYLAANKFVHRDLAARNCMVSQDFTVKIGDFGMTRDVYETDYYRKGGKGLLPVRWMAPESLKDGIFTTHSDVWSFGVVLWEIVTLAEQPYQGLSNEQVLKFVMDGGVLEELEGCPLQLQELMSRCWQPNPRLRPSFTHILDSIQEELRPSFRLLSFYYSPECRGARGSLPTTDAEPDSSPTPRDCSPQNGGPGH
UniProt P06239: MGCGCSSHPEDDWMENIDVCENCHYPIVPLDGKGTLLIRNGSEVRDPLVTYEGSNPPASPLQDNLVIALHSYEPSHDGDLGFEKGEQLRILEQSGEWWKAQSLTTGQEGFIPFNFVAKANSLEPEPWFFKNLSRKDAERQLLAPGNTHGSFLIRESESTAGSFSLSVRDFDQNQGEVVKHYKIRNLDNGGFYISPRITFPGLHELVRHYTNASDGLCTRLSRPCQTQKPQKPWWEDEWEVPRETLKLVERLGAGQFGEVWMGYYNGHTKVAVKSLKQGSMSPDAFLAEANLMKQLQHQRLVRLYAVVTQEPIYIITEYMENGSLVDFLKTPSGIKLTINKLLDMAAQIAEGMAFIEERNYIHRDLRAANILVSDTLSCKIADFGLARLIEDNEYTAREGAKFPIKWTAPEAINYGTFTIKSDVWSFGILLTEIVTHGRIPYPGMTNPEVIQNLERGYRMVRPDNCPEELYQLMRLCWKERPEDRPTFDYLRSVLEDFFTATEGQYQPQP
UniProt P53667: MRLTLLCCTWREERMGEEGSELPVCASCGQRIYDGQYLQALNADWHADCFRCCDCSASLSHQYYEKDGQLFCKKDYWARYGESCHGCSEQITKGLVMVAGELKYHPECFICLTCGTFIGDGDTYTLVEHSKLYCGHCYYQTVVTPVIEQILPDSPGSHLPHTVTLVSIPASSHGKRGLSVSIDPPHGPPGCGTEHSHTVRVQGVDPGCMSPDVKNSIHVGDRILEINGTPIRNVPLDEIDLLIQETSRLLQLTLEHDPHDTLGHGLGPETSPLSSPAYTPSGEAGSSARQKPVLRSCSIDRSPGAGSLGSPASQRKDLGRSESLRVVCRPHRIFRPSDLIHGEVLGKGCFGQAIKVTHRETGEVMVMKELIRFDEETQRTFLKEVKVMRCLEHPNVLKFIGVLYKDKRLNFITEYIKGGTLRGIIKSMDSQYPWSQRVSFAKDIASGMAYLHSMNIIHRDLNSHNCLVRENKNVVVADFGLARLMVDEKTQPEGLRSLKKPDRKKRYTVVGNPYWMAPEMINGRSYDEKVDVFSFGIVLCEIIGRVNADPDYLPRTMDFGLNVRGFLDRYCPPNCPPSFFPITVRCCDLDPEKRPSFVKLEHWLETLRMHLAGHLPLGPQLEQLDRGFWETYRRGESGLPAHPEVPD
UniProt Q8IWU2: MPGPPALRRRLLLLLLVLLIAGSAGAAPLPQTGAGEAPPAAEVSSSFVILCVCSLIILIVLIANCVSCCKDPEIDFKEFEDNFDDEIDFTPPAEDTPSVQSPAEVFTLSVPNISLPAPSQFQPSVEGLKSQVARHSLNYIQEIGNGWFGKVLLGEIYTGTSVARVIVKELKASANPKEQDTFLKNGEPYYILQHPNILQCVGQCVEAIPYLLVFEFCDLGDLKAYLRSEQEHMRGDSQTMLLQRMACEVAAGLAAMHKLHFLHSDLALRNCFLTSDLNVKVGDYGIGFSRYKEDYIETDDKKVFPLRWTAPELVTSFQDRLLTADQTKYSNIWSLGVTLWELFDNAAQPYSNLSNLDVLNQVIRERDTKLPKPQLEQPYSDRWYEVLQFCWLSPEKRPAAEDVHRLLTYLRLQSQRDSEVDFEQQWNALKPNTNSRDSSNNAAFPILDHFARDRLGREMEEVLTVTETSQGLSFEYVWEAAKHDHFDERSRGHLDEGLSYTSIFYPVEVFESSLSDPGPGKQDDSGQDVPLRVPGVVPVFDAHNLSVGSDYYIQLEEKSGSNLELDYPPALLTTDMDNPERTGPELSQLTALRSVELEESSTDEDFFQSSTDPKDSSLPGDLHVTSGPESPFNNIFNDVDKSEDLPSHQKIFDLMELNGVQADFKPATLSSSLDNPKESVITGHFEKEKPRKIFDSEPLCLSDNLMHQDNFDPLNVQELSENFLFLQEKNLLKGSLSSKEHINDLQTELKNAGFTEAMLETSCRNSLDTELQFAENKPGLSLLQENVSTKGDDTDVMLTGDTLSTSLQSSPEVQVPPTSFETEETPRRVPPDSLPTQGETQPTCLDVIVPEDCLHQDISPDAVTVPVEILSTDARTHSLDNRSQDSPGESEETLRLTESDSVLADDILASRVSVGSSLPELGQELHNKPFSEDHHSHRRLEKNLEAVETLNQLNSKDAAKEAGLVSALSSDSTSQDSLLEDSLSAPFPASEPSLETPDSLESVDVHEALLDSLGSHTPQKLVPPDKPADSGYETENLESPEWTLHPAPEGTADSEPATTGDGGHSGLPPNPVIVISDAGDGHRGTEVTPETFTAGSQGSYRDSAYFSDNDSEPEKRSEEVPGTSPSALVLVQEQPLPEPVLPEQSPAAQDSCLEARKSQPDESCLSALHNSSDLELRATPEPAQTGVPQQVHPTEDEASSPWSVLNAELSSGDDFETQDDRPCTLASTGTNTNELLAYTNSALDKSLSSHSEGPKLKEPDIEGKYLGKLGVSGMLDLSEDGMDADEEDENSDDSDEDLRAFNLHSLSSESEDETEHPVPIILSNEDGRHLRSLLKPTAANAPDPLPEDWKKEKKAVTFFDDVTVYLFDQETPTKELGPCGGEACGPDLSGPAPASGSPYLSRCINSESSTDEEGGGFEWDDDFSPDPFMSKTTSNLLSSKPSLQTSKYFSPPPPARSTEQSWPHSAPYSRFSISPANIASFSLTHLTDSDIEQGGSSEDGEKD
UniProt Q12851: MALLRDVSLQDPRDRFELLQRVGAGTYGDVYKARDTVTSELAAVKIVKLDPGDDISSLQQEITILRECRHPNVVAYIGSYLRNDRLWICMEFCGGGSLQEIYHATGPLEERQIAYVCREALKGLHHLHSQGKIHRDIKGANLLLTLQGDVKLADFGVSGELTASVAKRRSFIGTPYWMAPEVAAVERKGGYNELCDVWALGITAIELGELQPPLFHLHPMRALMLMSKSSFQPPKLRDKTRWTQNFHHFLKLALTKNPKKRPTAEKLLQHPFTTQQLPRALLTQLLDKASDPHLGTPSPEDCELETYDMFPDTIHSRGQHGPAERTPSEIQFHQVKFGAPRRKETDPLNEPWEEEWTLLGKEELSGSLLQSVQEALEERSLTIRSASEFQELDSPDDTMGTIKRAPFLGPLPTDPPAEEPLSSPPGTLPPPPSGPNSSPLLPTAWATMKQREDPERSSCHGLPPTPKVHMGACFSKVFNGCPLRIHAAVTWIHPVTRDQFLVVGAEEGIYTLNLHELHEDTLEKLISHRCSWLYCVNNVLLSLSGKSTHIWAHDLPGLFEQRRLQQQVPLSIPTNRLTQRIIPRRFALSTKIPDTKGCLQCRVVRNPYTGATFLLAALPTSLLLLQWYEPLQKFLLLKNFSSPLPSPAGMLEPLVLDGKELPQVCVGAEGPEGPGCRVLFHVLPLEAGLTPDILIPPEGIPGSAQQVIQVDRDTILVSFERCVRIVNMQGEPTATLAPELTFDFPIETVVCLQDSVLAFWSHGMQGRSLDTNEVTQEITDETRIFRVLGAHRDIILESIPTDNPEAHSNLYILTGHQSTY

Legend:
Experiment in all cases: kinase-Nluc reporter destabilization hit call (1 = scored as downregulated) (binary); higher = compound decreases kinase abundance
Conditions in all cases: K562, 2-18 h
ERN1 = ERN1 (UniProt O75460)
FGFR1 = FGFR1 (UniProt P11362)
FGFR2 = FGFR2 (UniProt P21802)
FGFR3 = FGFR3 (UniProt P22607)
FGR = FGR (UniProt P09769)
FLT3 = FLT3 (UniProt P36888)
FYN = FYN (UniProt P06241)
GSK3A = GSK3A (UniProt P49840)
HER2 = HER2 (UniProt P04626)
INSRR = INSRR (UniProt P14616)
IRAK3 = IRAK3 (UniProt Q9Y616)
JAK1 = JAK1 (UniProt P23458)
LCK = LCK (UniProt P06239)
LIMK1 = LIMK1 (UniProt P53667)
LIMK2 = LIMK2 (UniProt P53671)
LMTK2 = LMTK2 (UniProt Q8IWU2)
LYN = LYN (UniProt P07948)
MAP2K1 = MAP2K1 (UniProt Q02750)
MAP2K2 = MAP2K2 (UniProt P36507)
MAP4K2 = MAP4K2 (UniProt Q12851)

Measured: kinase-Nluc reporter destabilization hit call

CCCCCC1CC1CC1CC1CCCCCCCC(=O)OC (stereo not given)
inactive: ERN1; 10 µM 0 | FGFR1; 10 µM 0 | FGFR2; 10 µM 0 | FGFR3; 10 µM 0 | FGR; 10 µM 0 | FLT3; 10 µM 0 | FYN; 10 µM 0 | GSK3A; 10 µM 0 | HER2; 10 µM 0 | INSRR; 10 µM 0 | IRAK3; 10 µM 0 | JAK1; 10 µM 0 | LCK; 10 µM 0 | LIMK1; 10 µM 0 | LIMK2; 10 µM 0 | LMTK2; 10 µM 0 | LYN; 10 µM 0 | MAP2K1; 10 µM 0 | MAP2K2; 10 µM 0 | MAP4K2; 10 µM 0

COc1ccc(-c2cc3nccn3c(Nc3ncccc3C(N)=O)n2)cc1OC [BAY 61-3606 (dihydrochloride)]
inactive: ERN1; 2.5 µM 0 | FGFR1; 2.5 µM 0 | FGFR2; 2.5 µM 0 | FGFR3; 2.5 µM 0 | FGR; 2.5 µM 0 | FLT3; 2.5 µM 0 | FYN; 2.5 µM 0 | GSK3A; 2.5 µM 0 | HER2; 2.5 µM 0 | INSRR; 2.5 µM 0 | IRAK3; 2.5 µM 0 | JAK1; 2.5 µM 0 | LCK; 2.5 µM 0 | LIMK1; 2.5 µM 0 | LIMK2; 2.5 µM 0 | LMTK2; 2.5 µM 0 | LYN; 2.5 µM 0 | MAP2K1; 2.5 µM 0 | MAP2K2; 2.5 µM 0 | MAP4K2; 2.5 µM 0

C=CC(=O)N1CCC([C@@H]2CCNc3c(C(N)=O)c(-c4ccc(Oc5ccccc5)cc4)nn32)CC1 [Zanubrutinib]
inactive: ERN1; 10 µM 0 | FGFR1; 10 µM 0 | FGFR2; 10 µM 0 | FGFR3; 10 µM 0 | FGR; 10 µM 0 | FLT3; 10 µM 0 | FYN; 10 µM 0 | GSK3A; 10 µM 0 | HER2; 10 µM 0 | INSRR; 10 µM 0 | IRAK3; 10 µM 0 | JAK1; 10 µM 0 | LCK; 10 µM 0 | LIMK1; 10 µM 0 | LIMK2; 10 µM 0 | LMTK2; 10 µM 0 | LYN; 10 µM 0 | MAP2K1; 10 µM 0 | MAP2K2; 10 µM 0 | MAP4K2; 10 µM 0

Nc1ncccc1-c1nc2ccc(-c3ccccc3)nc2n1-c1ccc(C2(N)CCC2)cc1 [Miransertib]
inactive: ERN1; 10 µM 0 | FGFR1; 10 µM 0 | FGFR2; 10 µM 0 | FGFR3; 10 µM 0 | FGR; 10 µM 0 | FLT3; 10 µM 0 | FYN; 10 µM 0 | GSK3A; 10 µM 0 | HER2; 10 µM 0 | INSRR; 10 µM 0 | IRAK3; 10 µM 0 | JAK1; 10 µM 0 | LCK; 10 µM 0 | LIMK2; 10 µM 0 | LMTK2; 10 µM 0 | LYN; 10 µM 0 | MAP2K1; 10 µM 0 | MAP2K2; 10 µM 0 | MAP4K2; 10 µM 0
active: LIMK1; 10 µM 1

Sorted by count of non-hydrogen atoms (low to high): some entries from above
CCCCCC1CC1CC1CC1CCCCCCCC(=O)OC (stereo not given)
inactive: ERN1; 10 µM 0 | FGFR1; 10 µM 0 | FGFR2; 10 µM 0 | FGFR3; 10 µM 0 | FGR; 10 µM 0 | FLT3; 10 µM 0 | FYN; 10 µM 0 | GSK3A; 10 µM 0 | HER2; 10 µM 0 | INSRR; 10 µM 0 | IRAK3; 10 µM 0 | JAK1; 10 µM 0 | LCK; 10 µM 0 | LIMK1; 10 µM 0 | LIMK2; 10 µM 0 | LMTK2; 10 µM 0 | LYN; 10 µM 0 | MAP2K1; 10 µM 0 | MAP2K2; 10 µM 0 | MAP4K2; 10 µM 0

Nc1ncccc1-c1nc2ccc(-c3ccccc3)nc2n1-c1ccc(C2(N)CCC2)cc1 [Miransertib]
inactive: ERN1; 10 µM 0 | FGFR1; 10 µM 0 | FGFR2; 10 µM 0 | FGFR3; 10 µM 0 | FGR; 10 µM 0 | FLT3; 10 µM 0 | FYN; 10 µM 0 | GSK3A; 10 µM 0 | HER2; 10 µM 0 | INSRR; 10 µM 0 | IRAK3; 10 µM 0 | JAK1; 10 µM 0 | LCK; 10 µM 0 | LIMK2; 10 µM 0 | LMTK2; 10 µM 0 | LYN; 10 µM 0 | MAP2K1; 10 µM 0 | MAP2K2; 10 µM 0 | MAP4K2; 10 µM 0
active: LIMK1; 10 µM 1

C=CC(=O)N1CCC([C@@H]2CCNc3c(C(N)=O)c(-c4ccc(Oc5ccccc5)cc4)nn32)CC1 [Zanubrutinib]
inactive: ERN1; 10 µM 0 | FGFR1; 10 µM 0 | FGFR2; 10 µM 0 | FGFR3; 10 µM 0 | FGR; 10 µM 0 | FLT3; 10 µM 0 | FYN; 10 µM 0 | GSK3A; 10 µM 0 | HER2; 10 µM 0 | INSRR; 10 µM 0 | IRAK3; 10 µM 0 | JAK1; 10 µM 0 | LCK; 10 µM 0 | LIMK1; 10 µM 0 | LIMK2; 10 µM 0 | LMTK2; 10 µM 0 | LYN; 10 µM 0 | MAP2K1; 10 µM 0 | MAP2K2; 10 µM 0 | MAP4K2; 10 µM 0

Further compounds:

C[C@H]1CN(C2COC2)CCN1c1ccc(Nc2cc(-c3ccnc(N4CCn5c(cc6c5CC(C)(C)C6)C4=O)c3CO)cn(C)c2=O)nc1 [Fenebrutinib]
inactive: ERN1; 10 µM 0 | FGFR1; 10 µM 0 | FGFR2; 10 µM 0 | FGFR3; 10 µM 0 | FGR; 10 µM 0 | FLT3; 10 µM 0 | FYN; 10 µM 0 | GSK3A; 10 µM 0 | HER2; 10 µM 0 | INSRR; 10 µM 0 | IRAK3; 10 µM 0 | JAK1; 10 µM 0 | LCK; 10 µM 0 | LIMK1; 10 µM 0 | LIMK2; 10 µM 0 | LMTK2; 10 µM 0 | LYN; 10 µM 0 | MAP2K1; 10 µM 0 | MAP2K2; 10 µM 0 | MAP4K2; 10 µM 0

C=CC(=O)N1CCC[C@@H](n2nc(-c3ccc(Oc4ccccc4)cc3)c3c(N)ncnc32)C1 [Ibrutinib]
inactive: ERN1; 2.5 µM 0 | FGFR1; 2.5 µM 0 | FGFR2; 2.5 µM 0 | FGFR3; 2.5 µM 0 | FGR; 2.5 µM 0 | FLT3; 2.5 µM 0 | FYN; 2.5 µM 0 | GSK3A; 2.5 µM 0 | HER2; 2.5 µM 0 | INSRR; 2.5 µM 0 | IRAK3; 2.5 µM 0 | JAK1; 2.5 µM 0 | LCK; 2.5 µM 0 | LIMK1; 2.5 µM 0 | LIMK2; 2.5 µM 0 | LMTK2; 2.5 µM 0 | LYN; 2.5 µM 0 | MAP2K1; 2.5 µM 0 | MAP2K2; 2.5 µM 0 | MAP4K2; 2.5 µM 0

CCCOc1ccc(C=C2SC(=O)NC2=O)cc1
inactive: ERN1; 10 µM 0 | FGFR1; 10 µM 0 | FGFR2; 10 µM 0 | FGFR3; 10 µM 0 | FGR; 10 µM 0 | FLT3; 10 µM 0 | FYN; 10 µM 0 | GSK3A; 10 µM 0 | HER2; 10 µM 0 | INSRR; 10 µM 0 | IRAK3; 10 µM 0 | JAK1; 10 µM 0 | LCK; 10 µM 0 | LIMK1; 10 µM 0 | LIMK2; 10 µM 0 | LMTK2; 10 µM 0 | LYN; 10 µM 0 | MAP2K1; 10 µM 0 | MAP2K2; 10 µM 0 | MAP4K2; 10 µM 0

C[C@@H]1CN(C(=O)Nc2ccc(-c3nc(N4CCOCC4)c4cnn(CCCCCCC(=O)NO)c4n3)cc2)CCO1 [HDACs/mTOR Inhibitor 1]
inactive: ERN1; 10 µM 0 | FGFR1; 10 µM 0 | FGFR2; 10 µM 0 | FGFR3; 10 µM 0 | FGR; 10 µM 0 | FLT3; 10 µM 0 | FYN; 10 µM 0 | GSK3A; 10 µM 0 | HER2; 10 µM 0 | INSRR; 10 µM 0 | IRAK3; 10 µM 0 | JAK1; 10 µM 0 | LCK; 10 µM 0 | LIMK1; 10 µM 0 | LIMK2; 10 µM 0 | LMTK2; 10 µM 0 | LYN; 10 µM 0 | MAP2K1; 10 µM 0 | MAP2K2; 10 µM 0 | MAP4K2; 10 µM 0

COc1cc2ncnc(Nc3cccc(Br)c3)c2cc1OC
inactive: ERN1; 10 µM 0 | FGFR1; 10 µM 0 | FGFR2; 10 µM 0 | FGFR3; 10 µM 0 | FGR; 10 µM 0 | FLT3; 10 µM 0 | FYN; 10 µM 0 | GSK3A; 10 µM 0 | HER2; 10 µM 0 | INSRR; 10 µM 0 | IRAK3; 10 µM 0 | JAK1; 10 µM 0 | LCK; 10 µM 0 | LIMK1; 10 µM 0 | LIMK2; 10 µM 0 | LMTK2; 10 µM 0 | LYN; 10 µM 0 | MAP2K1; 10 µM 0 | MAP2K2; 10 µM 0 | MAP4K2; 10 µM 0
